Laboratory results published in the supplement of paper PMC8728848.
This is one part of the list.

How the values were obtained:
Assay in all cases: glycan array binding signal (z-score within array); higher = stronger binding
Details in all cases: glycan notation: IUPAC condensed, linker removed
[1] = target: Gal(b1-4)GlcNAc(b1-6)[Gal(b1-3)]GalNAc
Procedure, shortened: (§1)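 Glycan array data came from 3228 arrays in the Consortium for Functional Glycomics database, and only arrays with an available protein sequence were kept. Glycan names were put into IUPAC-condensed notation, and columns mapping to the same glycan were averaged. The binding signal is a within-array Z-score, averaged across arrays of one protein sequence run at different concentrations or buffers and across linkers. A negative Z-score can be read as non-binding.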

[2] = target: Gal(b1-4)GlcNAc(b1-6)[Gal(b1-4)GlcNAc(b1-3)]GalNAc
Procedure, shortened: as §1

[3] = target: Gal(b1-4)GlcNAc6P
Procedure, shortened: as §1

[4] = target: Gal(b1-6)Gal
Procedure, shortened: as §1

[5] = target: Gal3S(b1-3)GalNAc
Procedure, shortened: as §1

[6] = target: Gal3S(b1-3)GlcNAc
Procedure, shortened: as §1

[7] = target: Gal3S(b1-3)[Fuc(a1-4)]GlcNAc
Procedure, shortened: as §1

[8] = target: Gal3S(b1-4)Glc
Procedure, shortened: as §1

[9] = target: Gal3S(b1-4)Glc6S
Procedure, shortened: as §1

[10] = target: Gal3S(b1-4)GlcNAc
Procedure, shortened: as §1

[11] = target: Gal3S(b1-4)[Fuc(a1-3)]Glc6S
Procedure, shortened: as §1

[12] = target: Gal3S(b1-4)[Fuc(a1-3)]GlcNAc
Procedure, shortened: as §1

[13] = target: Gal3S(b1-4)[Fuc(a1-3)]GlcNAc6S
Procedure, shortened: as §1

[14] = target: Gal3S4S(b1-4)GlcNAc
Procedure, shortened: as §1

[15] = target: Gal3S6S(b1-4)GlcNAc
Procedure, shortened: as §1

[16] = target: Gal3S6S(b1-4)GlcNAc6S
Procedure, shortened: as §1

[17] = target: Gal4S(b1-4)GlcNAc
Procedure, shortened: as §1

[18] = target: Gal4S6S(b1-4)GlcNAc
Procedure, shortened: as §1

[19] = target: Gal6P(b1-4)GlcNAc
Procedure, shortened: as §1

[20] = target: Gal6S(b1-3)GlcNAc
Procedure, shortened: as §1

[21] = target: Gal6S(b1-3)GlcNAc6S
Procedure, shortened: as §1

[22] = target: Gal6S(b1-4)Glc
Procedure, shortened: as §1

[23] = target: Gal6S(b1-4)Glc6S
Procedure, shortened: as §1

[24] = target: Gal6S(b1-4)GlcNAc
Procedure, shortened: as §1

[25] = target: Gal6S(b1-4)GlcNAc6S
Procedure, shortened: as §1

[26] = target: GalNAc(a1-3)Gal
Procedure, shortened: as §1

[27] = target: GalNAc(a1-3)GalNAc
Procedure, shortened: as §1

[28] = target: GalNAc(a1-3)GalNAc(a1-3)Gal(a1-4)Gal(b1-4)GlcNAc
Procedure, shortened: as §1

[29] = target: GalNAc(a1-3)GalNAc(b1-3)Gal(a1-4)Gal(b1-4)Glc
Procedure, shortened: as §1

[30] = target: GalNAc(b1-3)Gal
Procedure, shortened: as §1

[31] = target: GalNAc(b1-3)Gal(a1-4)Gal(b1-4)GlcNAc
Procedure, shortened: as §1

[32] = target: GalNAc(b1-3)Gal(a1-4)Gal(b1-4)GlcNAc(b1-3)Gal(b1-4)Glc
Procedure, shortened: as §1

[33] = target: GalNAc(b1-3)Gal(a1-6)Gal(b1-4)Glc
Procedure, shortened: as §1

[34] = target: GalNAc(b1-3)GalNAc
Procedure, shortened: as §1

[35] = target: GalNAc(b1-3)GlcNAc
Procedure, shortened: as §1

[36] = target: GalNAc(b1-4)Gal(b1-4)Glc
Procedure, shortened: as §1

[37] = target: GalNAc(b1-4)GlcNAc
Procedure, shortened: as §1

[38] = target: GalNAc(b1-4)GlcNAc(b1-2)Man
Procedure, shortened: as §1

B1: Epf (Streptococcus pyogenes) (protein)
chain: GDHGPEFNGVMVVKAAEAEELPDDLMNFKGTWEVSADGSSGRFFSKGATDSYVFHLIPAKDVKKPGWREHNEVKDSYIKIDKQSIAARYKTSTTAPYSVAFKVNTKSLIKDHDYKITFEQGQIASGITVDYRIGSAFNKTTDDSFKISDESKYASNVKIEGEEQGFKQREQGDKTISFRTLKEGPMSLVLLSKVEKKPQGDLDVEFKNLKIIDVTNPSQLDKGVAYVGNKNVQLTLKSDDGRTNFEGDEISLFNSRGELLQTVTVTKDQQNPISITLSEDQAKSLKNKEKLKVSIKQKQSKKTSKDFFFEVGIDPKVEAKQKEKLLELDKVKKQIEDSINGDAWLPEKPVDLQGDHGLSAWSHPQFEK
For B1, the “glycan array binding signal (z-score)” value [1] was 0.279, the “glycan array binding signal (z-score)” value [2] was -0.178 and the “glycan array binding signal (z-score)” value [3] was 0.789. The “glycan array binding signal (z-score)” value [4] was 1.65, the “glycan array binding signal (z-score)” value [5] was -0.626 and the “glycan array binding signal (z-score)” value [6] was 0.473. For the same binder, the “glycan array binding signal (z-score)” value [7] was -0.804, the “glycan array binding signal (z-score)” value [8] was 1.73 and the “glycan array binding signal (z-score)” value [9] was -0.159. The “glycan array binding signal (z-score)” value [10] was 1.35, the “glycan array binding signal (z-score)” value [11] was 1.89 and the “glycan array binding signal (z-score)” value [12] was 1. The “glycan array binding signal (z-score)” value [13] was -0.754, the “glycan array binding signal (z-score)” value [14] was -0.712 and the “glycan array binding signal (z-score)” value [15] was -1.46. The “glycan array binding signal (z-score)” value [16] was 0.334, the “glycan array binding signal (z-score)” value [17] was -0.783 and the “glycan array binding signal (z-score)” value [18] was -0.669. The “glycan array binding signal (z-score)” value [19] was 0.72, the “glycan array binding signal (z-score)” value [20] was -0.499 and the “glycan array binding signal (z-score)” value [21] was -1.31. The “glycan array binding signal (z-score)” value [22] was 0.285, the “glycan array binding signal (z-score)” value [23] was -1.45 and the “glycan array binding signal (z-score)” value [24] was -1.32. For the same binder, the “glycan array binding signal (z-score)” value [25] was 2.34, the “glycan array binding signal (z-score)” value [26] was -1.32 and the “glycan array binding signal (z-score)” value [27] was -1.64. For the same binder, the “glycan array binding signal (z-score)” value [28] was 0.701, the “glycan array binding signal (z-score)” value [29] was 0.674 and the “glycan array binding signal (z-score)” value [30] was 0.886. For the same binder, the “glycan array binding signal (z-score)” value [31] was 0.386, the “glycan array binding signal (z-score)” value [32] was -0.002 and the “glycan array binding signal (z-score)” value [33] was -1.66. The “glycan array binding signal (z-score)” value [34] was -1.32, the “glycan array binding signal (z-score)” value [35] was -0.448 and the “glycan array binding signal (z-score)” value [36] was -0.265. For the same binder, the “glycan array binding signal (z-score)” value [37] was -0.003 and the “glycan array binding signal (z-score)” value [38] was -0.678.
